The text below walks through data of the supplement of paper PMC6414424.

± gives the standard deviation of the averaged measurements. The list shows a part of the results.

This test deals with APPdp1-6 iPSC-derived neurons. As to the kind of experiment: pThr231Tau/total Tau ratio Z-score vs DMSO vehicle wells; higher = more pThr231Tau relative to total Tau. The note with it: 5 µM; treatment time 5 days.
For the compound `CCc1ccc(CCOc2ccc(CC3SC(=O)NC3=O)cc2)nc1` (stereo not drawn) [Prestw-1314], the “pThr231Tau/total Tau ratio Z-score” value was 0.812 ± 1.1.

As for `CC(C(=O)O)c1cccc(Oc2ccccc2)c1` (stereo not drawn) [Prestw-754], the “pThr231Tau/total Tau ratio Z-score” value stood at 0.372 ± 0.92. To `O=C1OC(c2ccc(O)cc2)(c2ccc(O)cc2)c2ccccc21` [PHENOLPHTHALEIN    Therap cat:  Cathartic] belongs -3.73 ± 0.57; to `CCCc1ncc(C[n+]2ccccc2C)c(N)n1` [Prestw-8], -0.159 ± 1.7. To `Cc1ccccc1N1CCN(C2CCc3cc(O)ccc3C2)CC1` (stereo not drawn) belongs 1.06 ± 1.2. To `Oc1cccc2cc3cccc(O)c3c(O)c12` [Prestw-1224] belongs 0.133 ± 1.9. Regarding `C=CCc1ccc(O)c(OC)c1`, the “pThr231Tau/total Tau ratio Z-score” value is -0.118 ± 0.2. To `CC(=O)OCC(=O)NCCCOc1cccc(CN2CCCCC2)c1` [Prestw-428] belongs 0.199 ± 0.72; to `CCn1cc(C(=O)O)c(=O)c2cc(F)c(N3CCNCC3)nc21` [Prestw-1401], -1.33 ± 1.2; to `CC(C)(C)C(=O)OCOC(=O)[C@@H]1N2C(=O)[C@@H](/N=C/N3CCCCCC3)[C@H]2SC1(C)C` [Prestw-1053], -0.329 ± 0.57.

Consider `CNc1ncnc2c1ncn2[C@@H]1O[C@H](CO)[C@@H](O)[C@H]1O` [Prestw-338], for which the “pThr231Tau/total Tau ratio Z-score” value was determined as 0.698 ± 0.42. To `c1ccc2c(c1)CCCC2C1=NCCN1` (stereo not drawn) [Prestw-698] belongs -0.347 ± 0.18.

In the case of `CCCCCN(C)CCC(O)(P(=O)(O)O)P(=O)(O)O` [Prestw-1285], the “pThr231Tau/total Tau ratio Z-score” value is -0.95 ± 0.31. To `C1N2CN3CN1CN(C2)C3` [Prestw-1282] belongs -0.614 ± 0.74. To `O=C1NCCN1c1ncc([N+](=O)[O-])s1` [Prestw-469] belongs -0.349 ± 0.36; to `C=C(CC)C(=O)c1ccc(OCC(=O)O)c(Cl)c1Cl` [Prestw-259], 0.407 ± 2.3. In the case of `CC(C)c1nc(N(C)S(C)(=O)=O)nc(-c2ccc(F)cc2)c1/C=C/[C@@H](O)C[C@@H](O)CC(=O)O` [ROSUVASTATIN CALCIUM, antihyperlipidemic], the “pThr231Tau/total Tau ratio Z-score” value is -2.14 ± 0.49.

Consider `Nc1ccc(S(=O)(=O)NC(=O)c2ccccc2)cc1` [Prestw-711], for which the “pThr231Tau/total Tau ratio Z-score” value was -0.58 ± 0.04.

In the case of `Cc1cccc(C)c1NC(=O)c1ccccc1C(=O)O`, the “pThr231Tau/total Tau ratio Z-score” value was determined as 0.762 ± 0.57. To `CS(=O)(=O)c1ccc([C@@H](O)[C@@H](CF)NC(=O)C(Cl)Cl)cc1` [Prestw-955] belongs -0.543 ± 1.2.

Take `CCN(CC)CCCC(C)Nc1ccnc2cc(Cl)ccc12` (stereo not drawn) [Prestw-548]: the “pThr231Tau/total Tau ratio Z-score” value is -0.266 ± 1.4.

For the compound `CCCCCCCCCCCCCCCC(=O)O[C@@H]1[C@@H](O)[C@@H](O)[C@@H]([C@H](NC(=O)[C@@H]2C[C@@H](CCC)CN2C)[C@H](C)Cl)O[C@@H]1SC`, the “pThr231Tau/total Tau ratio Z-score” value stood at 1.17 ± 0.089.

Regarding `Cc1cc(CC(=O)O)n(C)c1C(=O)c1ccc(Cl)cc1` [Prestw-779], the “pThr231Tau/total Tau ratio Z-score” value is -0.484 ± 0.97.

As for `CC(C)C[C@@H]1NC(=O)[C@H](CCCN)NC(=O)[C@H](C(C)C)NC(=O)[C@H](Cc2ccc(O)cc2)N[C@@H](CCC(=O)O)C(=O)N[C@@H](CC(N)=O)C(=O)[C@@H](Cc2ccccc2)NC(=O)[C@H](Cc2ccccc2)NC(=O)[C@@H]2CCCN2C(=O)[C@@H](Cc2ccccc2)NC1=O` [TYROTHRICIN    Therap cat:  Topical antibacterial], the “pThr231Tau/total Tau ratio Z-score” value was -4.92 ± 1. To `CCC(=O)c1c(O)cc(O)cc1O` [FLOPROPIONE    Therap cat:  Antispasmodic] belongs 0.864 ± 0.86. To `CC1Cc2ccccc2N1NC(=O)c1ccc(Cl)c(S(N)(=O)=O)c1` (stereo not drawn) [Prestw-220] belongs -0.396 ± 0.26; to `Nc1ccc(S(=O)(=O)Nc2ccnn2-c2ccccc2)cc1` [Prestw-21], 0.593 ± 1.6; to `O=C(NCC(O)CO)c1c(I)c(C(=O)NCC(O)CO)c(I)c(N(CCO)C(=O)CO)c1I` (stereo not drawn) [Prestw-878], 1.08 ± 0.16. To `CO/N=C(\C(=O)N[C@@H]1C(=O)N2C(C(=O)O)=C(COC(N)=O)CS[C@H]12)c1ccco1` [Prestw-720] belongs 0.58; to `C[C@H](O)C(=O)Nc1c(I)c(C(=O)NC(CO)CO)c(I)c(C(=O)NC(CO)CO)c1I` [Prestw-871], 1.03 ± 0.25. For `CC(C)CC(=O)N[C@H](C(=O)N[C@H](C(=O)N[C@@H](CC(C)C)[C@@H](O)CC(=O)N[C@@H](C)C(=O)N[C@@H](CC(C)C)[C@@H](O)CC(=O)O)C(C)C)C(C)C` [Prestw-405], the “pThr231Tau/total Tau ratio Z-score” value is -0.0214 ± 0.1. To `O=c1cc[nH]c(=S)[nH]1` [2-THIOURACIL    Therap cat: thyroid depressant] belongs 1.13 ± 2.2; to `CC[C@H]1OC(=O)[C@H](C)[C@@H](O[C@H]2C[C@@](C)(OC)[C@@H](O)[C@H](C)O2)[C@H](C)[C@@H](O[C@@H]2O[C@H](C)C[C@H](N(C)C)[C@H]2O)[C@](C)(O)C[C@@H](C)[C@@H]2N[C@@H](COCCOC)O[C@H]([C@H]2C)[C@]1(C)O` [Prestw-557], 0.0566 ± 0.054. To `O=C1CC2(CCCC2)CC(=O)N1CCCCN1CCN(c2ncccn2)CC1` [Prestw-1283] belongs 1.31 ± 0.68; to `O=C(O)/C=C/c1ccc(Cn2ccnc2)cc1` [Prestw-979], -0.918 ± 0.11. To `CCC1=C(C)CN(C(=O)NCCc2ccc(S(=O)(=O)NC(=O)NC3CCC(C)CC3)cc2)C1=O` (stereo not drawn) [Prestw-651] belongs -0.835 ± 1.1. For the compound `CCn1nc(C(=O)O)c(=O)c2cc3c(cc21)OCO3` [Prestw-780], the “pThr231Tau/total Tau ratio Z-score” value came out at 0.317 ± 0.036. To `Cc1cc(/C=C/c2ccc3cc(N(C)C)ccc3[n+]2C)c(C)n1-c1ccccc1` [Prestw-1040] belongs -4.08 ± 0.057. To `Cc1cc(/C=C/c2ccc3cc(N(C)C)ccc3[n+]2C)c(C)n1-c1ccccc1` [PYRVINIUM PAMOATE    Therap cat:  Anthelmintic (Nematodes)] belongs -4.6 ± 0.98; to `CCCCNc1ccc(C(=O)OCCOCCOCCOCCOCCOCCOCCOCCOCCOC)cc1` [Prestw-12], 0.0131 ± 0.96. In the case of `COCCOC(=O)C1=C(C)NC(C)=C(C(=O)OC/C=C/c2ccccc2)C1c1cccc([N+](=O)[O-])c1` (stereo not drawn) [Prestw-1376], the “pThr231Tau/total Tau ratio Z-score” value was determined as 0.615 ± 0.28.

Regarding `CN(C)CCOc1ccc(/C(=C(/CCCl)c2ccccc2)c2ccccc2)cc1` [Prestw-1197], the “pThr231Tau/total Tau ratio Z-score” value worked out at 0.501 ± 0.84. To `CCN1CCN(C(=O)N[C@@H](C(=O)N[C@@H]2C(=O)N3C(C(=O)O)=C(CSc4nnnn4C)CS[C@H]23)c2ccc(O)cc2)C(=O)C1=O` [Prestw-327] belongs 2.21 ± 1.2; to `C=C1/C(=C\C=C2/CCC[C@]3(C)[C@@H]([C@H](C)/C=C/[C@@H](O)C4CC4)CC[C@@H]23)C[C@@H](O)C[C@@H]1O` [Prestw-1257], 0.564 ± 0.5. To `Cc1ccc(Cl)c(Nc2ccccc2C(=O)O)c1Cl` [Prestw-206] belongs 0.562 ± 0.14; to `O=C(NCCO[N+](=O)[O-])c1cccnc1` [Prestw-106], -0.176 ± 0.49; to `COC(=O)Nc1nc2ccc(SC(C)C)cc2[nH]1` [Prestw-1080], -4.58 ± 1.3. Turning to `CC(C(=O)O)c1ccc(N2Cc3ccccc3C2=O)cc1` (stereo not drawn) [Prestw-836], the “pThr231Tau/total Tau ratio Z-score” value was -0.313 ± 1.6. Consider `CO[C@@]12[C@H](COC(N)=O)C3=C(C(=O)C(C)=C(N)C3=O)N1C[C@@H]1N[C@@H]12`, for which the “pThr231Tau/total Tau ratio Z-score” value is -0.336 ± 0.76. To `Oc1ccc(OCc2ccccc2)cc1` [Prestw-912] belongs -1.3 ± 0.71; to `C[C@H]1C[C@H]2[C@@H]3CCC4=CC(=O)C=C[C@]4(C)[C@@]3(F)[C@@H](O)C[C@]2(C)[C@@]1(O)C(=O)CO` [Prestw-362], -0.0793 ± 0.043; to `Cc1nnc(NS(=O)(=O)c2ccc(N)cc2)s1` [Prestw-742], -0.348 ± 0.62. Take `CCN1CCN(c2cc3c(cc2F)c(=O)c(C(=O)O)cn3C2CC2)CC1` [ENROFLOXACIN, antibacterial]: the “pThr231Tau/total Tau ratio Z-score” value stood at 0.726 ± 0.44. To `CCN1CCC[C@H]1CNC(=O)c1c(OC)ccc(Br)c1OC` [Prestw-971] belongs 0.14 ± 0.95. To `COc1cc(NS(C)(=O)=O)ccc1Nc1c2ccccc2nc2ccccc12` [AMSACRINE, antineoplastic, immune suppressive] belongs -4.17 ± 1.1.

Regarding `CC1CC(OC(=O)C(O)c2ccccc2)CC(C)(C)N1C` (stereo not drawn), the “pThr231Tau/total Tau ratio Z-score” value amounted to 0.387 ± 0.34. To `CC1CC(OC(=O)C(O)c2ccccc2)CC(C)(C)N1C` (stereo not drawn) [Prestw-794] belongs 1.65 ± 1.7; to `O=C1c2c(O)cccc2C(C2OC(CO)C(O)C(O)C2O)c2cc(CO)cc(O)c21` (stereo not drawn) [ALOIN    cathartic, laxative ex aloe    J Chem Soc 1932:2573], 0.671 ± 0.27. `Cc1cnc(NC(=O)C2=C(O)c3ccccc3S(=O)(=O)N2C)s1` [Prestw-369]: the “pThr231Tau/total Tau ratio Z-score” value is -0.928 ± 0.078. To `CC1(C)O[C@@H]2C[C@H]3[C@@H]4CCC5=CC(=O)C=C[C@]5(C)[C@@]4(F)[C@@H](O)C[C@]3(C)[C@]2(C(=O)CO)O1` [TRIAMCINOLONE ACETONIDE    Therap cat: antiinflammation] belongs 0.971 ± 1.2. Turning to `OC1(c2ccc(Cl)c(C(F)(F)F)c2)CCN(CCCC(c2ccc(F)cc2)c2ccc(F)cc2)CC1` [PENFLURIDOL, antipsychotic], the “pThr231Tau/total Tau ratio Z-score” value is -0.486 ± 0.96.

Regarding `O=C(O)COC(=O)Cc1ccccc1Nc1c(Cl)cccc1Cl` [Prestw-175], the “pThr231Tau/total Tau ratio Z-score” value is -0.774 ± 1. To `O=c1oc2ccccc2c(O)c1Cc1c(O)c2ccccc2oc1=O` [Prestw-785] belongs 0.76 ± 1.5.

Consider `CN1CCN(CCCN2c3ccccc3Sc3ccc(Cl)cc32)CC1` [Prestw-399], for which the “pThr231Tau/total Tau ratio Z-score” value is -1.26 ± 1.2.

Turning to `Nc1nc(=S)c2[nH]cnc2[nH]1`, the “pThr231Tau/total Tau ratio Z-score” value was determined as 0.0544 ± 1.1. To `CN1CCN(c2c(F)cc3c(=O)c(C(=O)O)cn(CCF)c3c2F)CC1` [Prestw-1414] belongs -1.05 ± 0.74; to `C[C@H](CCC(=O)O)[C@H]1CC[C@H]2[C@@H]3[C@H](O)C[C@@H]4C[C@H](O)CC[C@]4(C)[C@H]3CC[C@]12C` [Prestw-285], -0.569 ± 0.17. To `NCC(O)CC(=O)O` (stereo not drawn) [AMINOHYDROXYBUTYRIC ACID    Therap cat: antiepileptic] belongs 1.49 ± 0.057. To `CC(=O)OCC(CCn1cnc2cnc(N)nc21)COC(C)=O` [Prestw-1249] belongs -0.937 ± 0.0037; to `NNc1nncc2ccccc12` [Prestw-169], -0.0268 ± 0.2. With `C1CNCCN1` [PIPERAZINE    Therap cat: anthelmintic (Nematodes)], the “pThr231Tau/total Tau ratio Z-score” value was determined as 0.471 ± 1.3.

As to `COc1c2occc2c(OC)c2c(=O)cc(C)oc12` [Prestw-91], the “pThr231Tau/total Tau ratio Z-score” value was -0.927 ± 0.92. To `CC[C@H](C)C(=O)O[C@H]1CCC=C2C=C[C@H](C)[C@H](CC[C@@H]3C[C@@H](O)CC(=O)O3)[C@H]21` [Prestw-1441] belongs -1.42 ± 1.4.
